Data: doi:10.1101/2022.05.26.493655
Read-outs that look alike come from different tables or passages of the source. These are yes or no findings as the source states them, for the method shown. In cells and extracts the contact can be indirect. Some binding calls cover weakened binding; strength is not graded here. For some of these results: Tags and fused reporters may be left off the sequences shown.

By UniProt entry, the sequences of proteins in these tests, tags left out.
UniProt Q13601: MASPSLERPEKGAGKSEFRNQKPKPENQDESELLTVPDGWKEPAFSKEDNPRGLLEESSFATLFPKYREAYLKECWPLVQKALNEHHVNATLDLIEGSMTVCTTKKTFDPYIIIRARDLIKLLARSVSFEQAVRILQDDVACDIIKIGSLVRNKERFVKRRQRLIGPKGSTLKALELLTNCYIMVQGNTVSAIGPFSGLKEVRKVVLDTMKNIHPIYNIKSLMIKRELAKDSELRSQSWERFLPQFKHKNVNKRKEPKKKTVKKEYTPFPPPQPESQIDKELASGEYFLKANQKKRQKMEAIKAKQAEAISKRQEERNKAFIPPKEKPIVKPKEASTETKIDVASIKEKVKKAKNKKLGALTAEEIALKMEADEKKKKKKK
UniProt Q96B26: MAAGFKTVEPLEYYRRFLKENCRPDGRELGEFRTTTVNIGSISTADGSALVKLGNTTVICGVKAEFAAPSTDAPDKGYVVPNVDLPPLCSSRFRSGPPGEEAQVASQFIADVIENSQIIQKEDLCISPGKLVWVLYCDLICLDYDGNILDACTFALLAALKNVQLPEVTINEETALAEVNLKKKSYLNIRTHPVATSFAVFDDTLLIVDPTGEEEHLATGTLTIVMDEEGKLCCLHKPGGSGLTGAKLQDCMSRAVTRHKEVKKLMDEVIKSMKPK
UniProt Q15024: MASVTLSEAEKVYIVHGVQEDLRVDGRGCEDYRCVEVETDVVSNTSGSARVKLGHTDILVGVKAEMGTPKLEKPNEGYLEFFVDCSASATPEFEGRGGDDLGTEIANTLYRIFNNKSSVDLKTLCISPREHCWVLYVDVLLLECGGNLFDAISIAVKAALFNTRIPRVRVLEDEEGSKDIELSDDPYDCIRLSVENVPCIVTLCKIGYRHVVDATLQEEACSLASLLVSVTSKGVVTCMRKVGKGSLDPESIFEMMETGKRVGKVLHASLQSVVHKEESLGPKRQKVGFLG

Columns and labels:
[1] = molecular target: KRR1 (human (endogenous in HCT116 and DLD1)) (UniProt Q13601); assay: co-IP
[2] = molecular target: T1, NOP2 (human (endogenous in HCT116 and DLD1)) (UniProt P46087); assay: co-IP
T1 sequence: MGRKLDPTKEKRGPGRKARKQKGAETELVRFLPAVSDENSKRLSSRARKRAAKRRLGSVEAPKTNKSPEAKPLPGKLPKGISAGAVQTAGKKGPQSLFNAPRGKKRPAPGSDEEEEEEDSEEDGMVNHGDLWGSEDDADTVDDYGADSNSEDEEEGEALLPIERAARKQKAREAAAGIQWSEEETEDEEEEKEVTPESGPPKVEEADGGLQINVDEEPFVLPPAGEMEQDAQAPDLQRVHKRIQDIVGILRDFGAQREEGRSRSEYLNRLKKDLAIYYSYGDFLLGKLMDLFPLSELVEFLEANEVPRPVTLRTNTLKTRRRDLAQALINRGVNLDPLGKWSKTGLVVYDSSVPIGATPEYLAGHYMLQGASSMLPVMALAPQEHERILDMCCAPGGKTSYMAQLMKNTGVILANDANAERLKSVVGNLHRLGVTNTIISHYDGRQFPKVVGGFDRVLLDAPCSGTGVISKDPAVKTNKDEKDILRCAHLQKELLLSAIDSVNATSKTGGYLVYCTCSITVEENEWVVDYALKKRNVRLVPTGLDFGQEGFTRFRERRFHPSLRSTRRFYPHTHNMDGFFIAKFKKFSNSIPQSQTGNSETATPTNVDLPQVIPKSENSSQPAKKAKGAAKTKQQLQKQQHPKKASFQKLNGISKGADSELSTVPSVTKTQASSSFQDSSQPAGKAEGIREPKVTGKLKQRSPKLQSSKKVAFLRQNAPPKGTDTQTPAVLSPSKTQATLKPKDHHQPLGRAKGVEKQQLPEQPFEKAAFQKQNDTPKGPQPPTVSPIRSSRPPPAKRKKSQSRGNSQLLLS

[3] = molecular target: EXOSC8 (human (endogenous in HCT116 and DLD1)) (UniProt Q96B26); assay: co-IP
[4] = molecular target: T2, ZNF692 stably overexpressed in HCT116 cells (human) (UniProt Q9BU19); assay: co-IP
T2 sequence: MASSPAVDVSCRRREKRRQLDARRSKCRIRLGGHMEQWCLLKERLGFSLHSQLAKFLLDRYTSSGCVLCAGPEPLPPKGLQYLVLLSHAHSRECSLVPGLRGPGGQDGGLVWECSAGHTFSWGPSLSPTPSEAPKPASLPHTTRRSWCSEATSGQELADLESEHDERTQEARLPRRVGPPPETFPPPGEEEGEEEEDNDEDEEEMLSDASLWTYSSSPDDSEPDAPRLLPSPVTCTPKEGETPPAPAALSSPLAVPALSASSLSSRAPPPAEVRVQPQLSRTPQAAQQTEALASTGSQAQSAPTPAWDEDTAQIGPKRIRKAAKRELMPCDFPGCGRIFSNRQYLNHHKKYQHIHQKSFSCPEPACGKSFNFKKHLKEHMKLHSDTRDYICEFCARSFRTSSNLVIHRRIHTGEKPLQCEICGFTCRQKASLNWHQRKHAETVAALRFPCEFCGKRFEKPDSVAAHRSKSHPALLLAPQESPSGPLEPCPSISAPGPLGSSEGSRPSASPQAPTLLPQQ

[5] = molecular target: T3, purified recombinant GFP-ZNF692 WT (human) (UniProt Q9BU19); assay: pull-down
T3 sequence: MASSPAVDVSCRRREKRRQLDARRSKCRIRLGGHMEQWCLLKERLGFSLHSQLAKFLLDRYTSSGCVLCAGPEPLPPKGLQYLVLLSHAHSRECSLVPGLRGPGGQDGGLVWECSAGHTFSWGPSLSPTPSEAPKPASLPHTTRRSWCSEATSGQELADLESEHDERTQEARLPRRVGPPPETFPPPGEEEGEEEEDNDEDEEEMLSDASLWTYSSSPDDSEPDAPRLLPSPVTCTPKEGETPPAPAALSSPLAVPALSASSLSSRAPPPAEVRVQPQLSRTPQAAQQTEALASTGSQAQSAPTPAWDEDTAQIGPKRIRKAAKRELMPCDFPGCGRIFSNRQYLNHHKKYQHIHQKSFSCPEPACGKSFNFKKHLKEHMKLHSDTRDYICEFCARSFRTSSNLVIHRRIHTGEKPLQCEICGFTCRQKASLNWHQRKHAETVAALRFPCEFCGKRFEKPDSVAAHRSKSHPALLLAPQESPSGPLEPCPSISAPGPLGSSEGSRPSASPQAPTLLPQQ

[6] = molecular target: T2, ZNF692 stably overexpressed in HCT116 cells (human); assay: co-IP; remark: listed apart in the source

Measured: binding

EXOSC7 (from UniProt Q15024 1-291)
binds: [1] | [2] | [3] | [4]

KRR1 (from UniProt Q13601 1-381)
binds: [5] | [4] | [6]

B1: NOP2 (protein, UniProt P46087 1-812)
chain: MGRKLDPTKEKRGPGRKARKQKGAETELVRFLPAVSDENSKRLSSRARKRAAKRRLGSVEAPKTNKSPEAKPLPGKLPKGISAGAVQTAGKKGPQSLFNAPRGKKRPAPGSDEEEEEEDSEEDGMVNHGDLWGSEDDADTVDDYGADSNSEDEEEGEALLPIERAARKQKAREAAAGIQWSEEETEDEEEEKEVTPESGPPKVEEADGGLQINVDEEPFVLPPAGEMEQDAQAPDLQRVHKRIQDIVGILRDFGAQREEGRSRSEYLNRLKKDLAIYYSYGDFLLGKLMDLFPLSELVEFLEANEVPRPVTLRTNTLKTRRRDLAQALINRGVNLDPLGKWSKTGLVVYDSSVPIGATPEYLAGHYMLQGASSMLPVMALAPQEHERILDMCCAPGGKTSYMAQLMKNTGVILANDANAERLKSVVGNLHRLGVTNTIISHYDGRQFPKVVGGFDRVLLDAPCSGTGVISKDPAVKTNKDEKDILRCAHLQKELLLSAIDSVNATSKTGGYLVYCTCSITVEENEWVVDYALKKRNVRLVPTGLDFGQEGFTRFRERRFHPSLRSTRRFYPHTHNMDGFFIAKFKKFSNSIPQSQTGNSETATPTNVDLPQVIPKSENSSQPAKKAKGAAKTKQQLQKQQHPKKASFQKLNGISKGADSELSTVPSVTKTQASSSFQDSSQPAGKAEGIREPKVTGKLKQRSPKLQSSKKVAFLRQNAPPKGTDTQTPAVLSPSKTQATLKPKDHHQPLGRAKGVEKQQLPEQPFEKAAFQKQNDTPKGPQPPTVSPIRSSRPPPAKRKKSQSRGNSQLLLS
binds: [5] | [1] | [4]
